In article doi:10.1101/2024.03.04.583404:
No constants are given. Whether binding was seen depends on the method and setting. In cells and extracts the contact can be indirect. Here binding means that the protein was enriched with, or labelled near, the bait; the list need not be complete. Where a sequence is shown, tags or fusion partners need not be part of it.

Amino acid sequences for entries named in this document (tags omitted). A change or cut given only in a name is not applied to a line headed by its entry.
UniProt D0PV95: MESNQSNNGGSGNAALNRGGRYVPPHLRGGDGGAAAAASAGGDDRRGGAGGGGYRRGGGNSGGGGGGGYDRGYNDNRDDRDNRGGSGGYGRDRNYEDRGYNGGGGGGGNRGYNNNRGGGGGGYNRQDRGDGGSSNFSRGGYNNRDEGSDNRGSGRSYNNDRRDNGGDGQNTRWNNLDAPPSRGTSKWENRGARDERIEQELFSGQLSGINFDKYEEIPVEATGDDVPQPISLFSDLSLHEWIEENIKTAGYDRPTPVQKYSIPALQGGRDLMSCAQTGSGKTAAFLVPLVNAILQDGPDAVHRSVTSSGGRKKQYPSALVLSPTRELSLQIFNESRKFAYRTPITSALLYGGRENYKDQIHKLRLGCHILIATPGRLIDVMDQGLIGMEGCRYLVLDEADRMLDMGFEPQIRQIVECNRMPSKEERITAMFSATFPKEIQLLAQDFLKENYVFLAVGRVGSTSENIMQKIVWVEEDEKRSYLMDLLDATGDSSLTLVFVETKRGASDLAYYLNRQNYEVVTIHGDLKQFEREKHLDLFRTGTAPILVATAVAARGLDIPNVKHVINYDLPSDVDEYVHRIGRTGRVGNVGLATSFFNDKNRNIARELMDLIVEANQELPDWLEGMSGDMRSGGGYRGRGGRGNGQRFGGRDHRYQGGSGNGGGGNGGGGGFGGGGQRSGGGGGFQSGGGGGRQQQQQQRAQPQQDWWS
UniProt Q20937: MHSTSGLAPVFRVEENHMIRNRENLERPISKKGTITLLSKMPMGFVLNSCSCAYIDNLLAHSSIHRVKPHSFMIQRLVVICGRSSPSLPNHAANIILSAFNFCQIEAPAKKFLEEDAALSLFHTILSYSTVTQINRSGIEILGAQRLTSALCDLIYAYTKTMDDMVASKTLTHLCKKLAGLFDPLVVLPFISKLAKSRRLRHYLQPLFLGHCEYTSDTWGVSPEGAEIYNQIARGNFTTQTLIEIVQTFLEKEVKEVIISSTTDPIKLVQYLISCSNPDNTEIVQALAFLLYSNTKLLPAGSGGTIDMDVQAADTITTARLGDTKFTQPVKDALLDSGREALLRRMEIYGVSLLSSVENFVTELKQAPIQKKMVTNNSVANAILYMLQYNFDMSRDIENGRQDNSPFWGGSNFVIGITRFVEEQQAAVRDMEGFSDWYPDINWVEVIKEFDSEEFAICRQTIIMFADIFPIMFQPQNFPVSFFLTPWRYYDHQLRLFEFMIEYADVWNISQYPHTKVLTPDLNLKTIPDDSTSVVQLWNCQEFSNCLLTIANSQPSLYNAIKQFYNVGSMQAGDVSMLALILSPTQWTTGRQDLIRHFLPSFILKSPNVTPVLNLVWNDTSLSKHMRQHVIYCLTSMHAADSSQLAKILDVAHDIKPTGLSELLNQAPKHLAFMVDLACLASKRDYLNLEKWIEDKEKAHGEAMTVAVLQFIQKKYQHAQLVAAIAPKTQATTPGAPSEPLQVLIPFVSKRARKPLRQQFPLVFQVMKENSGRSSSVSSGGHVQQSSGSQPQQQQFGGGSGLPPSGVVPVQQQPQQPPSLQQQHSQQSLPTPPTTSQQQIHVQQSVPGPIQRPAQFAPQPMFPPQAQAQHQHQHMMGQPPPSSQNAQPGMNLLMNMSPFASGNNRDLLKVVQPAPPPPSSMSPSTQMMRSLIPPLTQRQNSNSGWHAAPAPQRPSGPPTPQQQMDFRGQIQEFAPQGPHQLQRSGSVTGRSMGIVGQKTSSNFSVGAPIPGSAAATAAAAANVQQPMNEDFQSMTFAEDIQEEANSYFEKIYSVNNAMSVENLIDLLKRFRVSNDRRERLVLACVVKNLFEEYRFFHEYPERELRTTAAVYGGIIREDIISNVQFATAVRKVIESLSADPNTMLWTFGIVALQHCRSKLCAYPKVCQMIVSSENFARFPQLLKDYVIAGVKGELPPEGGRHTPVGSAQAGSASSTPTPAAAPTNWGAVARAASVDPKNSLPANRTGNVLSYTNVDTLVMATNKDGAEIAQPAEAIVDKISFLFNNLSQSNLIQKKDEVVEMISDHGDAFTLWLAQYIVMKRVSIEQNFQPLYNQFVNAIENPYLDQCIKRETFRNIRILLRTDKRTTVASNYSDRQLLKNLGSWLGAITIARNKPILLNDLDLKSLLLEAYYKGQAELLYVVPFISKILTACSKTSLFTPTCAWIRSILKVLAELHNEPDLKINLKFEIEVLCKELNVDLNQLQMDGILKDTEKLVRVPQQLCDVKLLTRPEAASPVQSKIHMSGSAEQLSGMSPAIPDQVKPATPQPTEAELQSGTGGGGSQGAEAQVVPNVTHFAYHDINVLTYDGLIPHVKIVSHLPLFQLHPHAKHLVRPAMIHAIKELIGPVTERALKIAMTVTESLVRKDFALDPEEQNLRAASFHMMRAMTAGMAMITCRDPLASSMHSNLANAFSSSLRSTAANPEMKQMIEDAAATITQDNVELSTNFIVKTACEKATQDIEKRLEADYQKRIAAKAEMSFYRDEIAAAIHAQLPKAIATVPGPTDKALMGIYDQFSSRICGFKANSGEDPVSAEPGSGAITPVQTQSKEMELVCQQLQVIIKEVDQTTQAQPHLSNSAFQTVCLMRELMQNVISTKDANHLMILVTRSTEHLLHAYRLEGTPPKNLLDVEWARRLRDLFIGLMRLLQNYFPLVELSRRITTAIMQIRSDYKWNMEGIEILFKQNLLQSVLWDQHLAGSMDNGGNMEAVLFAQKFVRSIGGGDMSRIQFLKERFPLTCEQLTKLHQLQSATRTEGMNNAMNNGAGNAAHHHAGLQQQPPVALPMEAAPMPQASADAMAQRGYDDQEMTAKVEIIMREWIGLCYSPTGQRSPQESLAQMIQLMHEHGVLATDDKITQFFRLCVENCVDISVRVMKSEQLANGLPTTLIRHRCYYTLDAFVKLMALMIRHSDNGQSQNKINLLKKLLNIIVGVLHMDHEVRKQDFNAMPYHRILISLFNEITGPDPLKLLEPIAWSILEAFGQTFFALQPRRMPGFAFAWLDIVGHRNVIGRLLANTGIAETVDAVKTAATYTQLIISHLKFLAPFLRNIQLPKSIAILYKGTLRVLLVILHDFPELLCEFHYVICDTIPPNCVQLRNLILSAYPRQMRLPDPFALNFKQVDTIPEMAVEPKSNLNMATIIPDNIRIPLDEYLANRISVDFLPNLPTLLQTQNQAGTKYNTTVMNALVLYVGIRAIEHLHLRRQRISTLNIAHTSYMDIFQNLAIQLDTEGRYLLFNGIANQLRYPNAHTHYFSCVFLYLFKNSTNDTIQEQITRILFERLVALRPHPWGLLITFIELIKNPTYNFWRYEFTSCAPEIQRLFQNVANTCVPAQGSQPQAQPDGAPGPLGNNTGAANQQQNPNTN
UniProt Q18224: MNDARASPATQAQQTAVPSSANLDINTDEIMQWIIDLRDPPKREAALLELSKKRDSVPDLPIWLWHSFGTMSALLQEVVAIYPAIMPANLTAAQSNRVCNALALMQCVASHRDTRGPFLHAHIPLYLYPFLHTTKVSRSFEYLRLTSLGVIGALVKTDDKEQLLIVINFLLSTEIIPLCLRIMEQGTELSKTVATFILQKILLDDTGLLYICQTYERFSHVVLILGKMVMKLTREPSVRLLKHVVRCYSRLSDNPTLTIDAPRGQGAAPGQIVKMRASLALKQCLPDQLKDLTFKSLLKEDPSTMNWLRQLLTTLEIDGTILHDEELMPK
UniProt Q21740: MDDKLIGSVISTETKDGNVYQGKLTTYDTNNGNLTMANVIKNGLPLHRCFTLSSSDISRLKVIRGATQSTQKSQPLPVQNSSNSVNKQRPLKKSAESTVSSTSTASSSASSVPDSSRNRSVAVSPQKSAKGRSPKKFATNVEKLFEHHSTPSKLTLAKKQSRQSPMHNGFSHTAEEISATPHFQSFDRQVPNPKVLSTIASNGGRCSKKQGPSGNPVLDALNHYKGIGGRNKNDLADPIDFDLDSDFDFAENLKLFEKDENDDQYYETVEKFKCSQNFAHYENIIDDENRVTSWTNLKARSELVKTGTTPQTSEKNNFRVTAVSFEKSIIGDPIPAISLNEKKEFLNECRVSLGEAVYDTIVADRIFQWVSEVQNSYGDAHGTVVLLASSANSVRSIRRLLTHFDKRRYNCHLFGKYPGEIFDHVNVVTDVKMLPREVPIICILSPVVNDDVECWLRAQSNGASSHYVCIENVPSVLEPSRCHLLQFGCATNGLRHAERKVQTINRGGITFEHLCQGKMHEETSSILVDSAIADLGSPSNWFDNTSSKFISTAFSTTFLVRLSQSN

T1: DCAP-2::3XFLAG (C. elegans (endogenous in embryos)) (UniProt O62255)
T1 sequence: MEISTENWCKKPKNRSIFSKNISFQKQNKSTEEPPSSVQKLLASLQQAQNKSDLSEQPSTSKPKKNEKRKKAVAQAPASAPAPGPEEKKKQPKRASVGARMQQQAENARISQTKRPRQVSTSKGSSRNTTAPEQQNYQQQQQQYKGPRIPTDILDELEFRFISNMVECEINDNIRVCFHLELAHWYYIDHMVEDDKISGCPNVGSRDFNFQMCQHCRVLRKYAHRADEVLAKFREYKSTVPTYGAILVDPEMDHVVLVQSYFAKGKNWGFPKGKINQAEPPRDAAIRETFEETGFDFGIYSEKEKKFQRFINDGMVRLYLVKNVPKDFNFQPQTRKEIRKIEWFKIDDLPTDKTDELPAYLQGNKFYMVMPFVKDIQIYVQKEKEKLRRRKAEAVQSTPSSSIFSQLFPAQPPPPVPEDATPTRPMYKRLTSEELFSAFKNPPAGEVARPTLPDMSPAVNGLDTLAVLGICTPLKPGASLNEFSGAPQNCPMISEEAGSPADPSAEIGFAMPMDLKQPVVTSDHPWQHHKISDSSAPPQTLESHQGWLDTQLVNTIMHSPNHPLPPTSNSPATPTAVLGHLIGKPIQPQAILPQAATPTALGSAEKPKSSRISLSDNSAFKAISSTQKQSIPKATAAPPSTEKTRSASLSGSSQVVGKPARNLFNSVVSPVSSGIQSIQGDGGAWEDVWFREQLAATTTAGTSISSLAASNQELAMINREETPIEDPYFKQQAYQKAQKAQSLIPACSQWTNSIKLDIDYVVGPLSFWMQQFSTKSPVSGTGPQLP


molecular target: T1, DCAP-2::3XFLAG (C. elegans (endogenous in embryos)); assay: affinity purification with mass spectrometry

Row | Molecule | binding
1 | LAF-1 (from UniProt D0PV95 1-708) | binds
2 | NTL-1/LET-711 (from UniProt Q20937 1-2641) | binds
3 | NTL-9 (from UniProt Q18224) | binds
4 | EDC-3 (from UniProt Q21740) | binds
5 | CCF-1 (protein, UniProt Q17345 1-310) MASSSSGGAGGAGGASGAPEVKIHNVYMSNVEEEFARIRGFVEDYPYVAMDTEFPGVVATPLGTFRSKEDFNYQQVFCNVNMLKLIQVGFAMVNDKGELPPTGDVWQFNFNFSFAEDMFSHESVEMLRQAGIDFTLLQNNGIPTAVFGELLTTSGLITDPRITWLTFSSGYDFGYLLKSITLGDLPKEESTFFMCHKTLFPTSFDIKILLRTPNCASAKLKGGLQEVADQLDVKRQGVRHQAGSDALLTAATFFKIKKQFFGDNWNQIAPLICGHMFGLGSSLSLFHSSGSTSRLGDETPQGLIGVPQQA | binds
6 | EIF-3.B (protein, UniProt Q9XWI6 1-725) MVEIDFNKENEEDFSDPPGFVDDVTDDVLVPDVLHKKPTIDEFEDNCVFIAGIPVVGADRLGKLQSVLKKVLERLDPAVKLYIPPSPEGGCLGVLLTEWADQRSAQFAVKSLNGYAFDKNHTFTARSFKDMKQLEAPSDHWTTPEKQAYNDVGDLWWWLQNERCRDQFAISHDKLGVPTVGVFTNMKGNDPELAGDADKAERANWTETVFTWSPHGSYLSTIHKQGIILWGGKDYARAHRFAHTNVQYIDFSPCETYLVTYAAPEESNSWGDCEKDSLRIWDVRTGELKKAFSTFELTGRTQLPTWPFFRWSFDEKYFACLKAPEKDKLEREQKINGISIFESEKFELYEGRPVNIENIKQFEWSPTSTVLAYYSECTDAVPAEFGLLQVPSMQRLRSARVHNVADAQMFWQKSGKRLAFYTMRFKKKEYRETGEVKYVGGCQYHVDIFEIDKKDVSLMNLPLSEPFIHFDWDPEGDKFCVLVGNTAKATPQVYKIEANSHAPKLVSKLDAGVHFNEVQFAPKGGWLAVLAKVSAGGNVYFIDTSLSEAKRTNVIEHPLFNKGYWDPTGRYFVTCSTLGGRAGADLGYRIFTFQGRELCRKNLDRLAQFKWRPRPPVKLSEQKQREIKKNLKKTAAKFIKQDDDEKCRASQEVVEKRRKIMAAFDIIRSRNREQLDATRDERISLRNGVDTEAQLDEDEFVDEEITIALSTSKTQAPLTEEEMRD | binds
7 | EIF-3.C (protein, UniProt O02328 1-898) MSRFFHAKEDSDSDTSSSEDEVEDQKVNKSAKFRDDLDFMAGPEEDEKRVVRAQKDKKFDELKGIIKQNRDAKSNKDLNRLLTGFDSLAKAYDKSKTVFQRQNVANPRFYIRSLVEIEDYVNKLWDDKDAKSALSKNNAKALPPLRQKLKKYIKDQQLQDLVTDYRVNPDEDGYETPEDEDDDDFGEVSESKAEKSPGKPSEKAAVSDSDSDSDDDDSSNWSSEPESNSSDDEDSVTKMEQLRRYFLKKEFRVESKDDKKEKKKRVIRVKEAVEEDDDADWTPVNREKSVVHFDPKEEVTHDVMIKKLNEVMSARGKRTTDRNQHVANLRKLLEVSEEKELGLGINVKISFCIISALFELNAKISDHMEYETFMTTLQTVNSLLDLLIGTDRVKLSVTYAEEDENLKDDTQEYRIQGSILIAVQRLDGELAKILQNADCHSNDYIEKLKAEKDMCSLIEKAEKYVELRNDSGIFDKHEVCKVYMMRIEHAYYKYQDQNEEDAGKLMDYLCNKIYTLDDEKRLRQRAMLCHVYYLAVHDKWHRARDLLLMSHMQAIVDHSDVDTQILYNRTICQLGLCAFRHGFIREAHQGLSEIQNTQRAKELLAQAVGTRQHEKTAEQEKIDRSRQVPYHMHINVELMECVYLICSMLLEIPHMASCEFEMRRRMLSRSFHYQLKQSEKASLTGPPENTREHVVAASKAMLNGDWKKCQDYIVNDKMNQKVWNLFHNAETVKGMVVRRIQEESLRTYLLTYSTVYATVSLKKLADLFELSKKDVHSIISKMIIQEELSATLDEPTDCLIMHRVEPSRLQMLALNLSDKLQTLAENNEQILEPRTGRGGYQGPGSWFPGRNERQGDKQKGSGGYQGERRGGQGQDGKRGNWGSQGGQQRRHPQKPRAF | binds
8 | EIF-3.E (protein, UniProt O61820 1-432) MSTFDLTQRMAPFLDLHLIIPLLEFIEPRGIYDEKSLTEMHRQLLTKTNMIDSVIETYNGKPIPAAIEAKKKQIIKERDELKSKVDSVVAILEIPEVKEMMDNNRERDGNVRILEHLTQNHNFTVDMVDTLFKYSKFMYECGNYTVASVCLYYYRNLVNQADPNYLNALYGKLASEILLQEWEHARDDLLKLRAYIDANPFDTEWELVTQRAWLMHWALFVYYNYPKGRDEIIEMFLNQQPYLNAIQVLAPHLLRYLAVAVVTSKSRQKNSLKDLVKVIDIERHSYKDPVTDFLTCLYIKYDFDEAQEMLQKCEEVLSNDFFLTAVLGDFRESARLLIFEMFCRIHQCITIEMLARRLNMSQEEAERWIVDLIRTYRIEGAKIDSKLGQVVMGVKSVSIHEQVMENTKRLTLRAQQIALQLEKGRQDKVKAT | binds
9 | EIF-3.K (protein, UniProt Q9XUP3 1-240) MSFEKLQKELHEAIEGVNRYNPENVADLAACVQAMVNENKYDKDIVLTILKLYQLNPEKYDEAVVRQVLLKTLMVLPSSDFALAKCLIDTNRLGSQELRRIFDLGAVLESCNFAVFWKLVKGAYKPTTNPNEPFKVPGEVPKMIKPMVGFEDAVKHYACRVISVTFQKIEKKMLSRLLGGASDKEVTALAQSFGWEAKENGDVFFVANHEGTIKTRNIDEKIQFPHVADLLTSIQPPLTL | binds
10 | DEPS-1 (protein, UniProt Q9N303 1-619) MSERQSKYFDYQGIVISSTGQDNQDSETDLVYLIQAHGKAAPKNIMYGVSKCAFVPTNLERNFDNIEEAKNLERRSKIPLKFGEVILWNESDCDHDKRIILHIKREKPIYEASSSRNGLILKVGGVIQPTSTTSFWTPLCTVTMPETEATRAEPDVWLYAWIRFETTMKSGLDPFNMTATFESFDSCDPSDQARVCEAPWNAGSPDSKFGVWRPDPKPADSDDEIDIEPREGWHLPEDKWAEVIKMQLGLYVGERLLICKELSQFDFIIPLQKPFSRGTDKTLIYPAVGEYFHFSAIWSMQHNGFLIYELQPVPLLRQHVTSVNGNLLTRVVPASIRGLFVDKEGTLGLIDDPHHLLSFFEFHPAGYEFLKAMAEVRAVRTSENKSVRYRIVRTSGMSIFENWLRDTQFVVGPVKGIRINEDTVICAKHPNVYFKIPNNLKEGIPIGGGVQFVGKRQAGVDSEIMITECSPCPAFTCKNYSVSGDTRLFQVYLKPNCDHEQLAESDSMGFVDFRELETPCRGKFLAWVRESITVNDCRRAATIMEVCSTAICPPLIAMSANSSRATSARTTPAGSSIGSRSSIQSRASAATSVSSNRFVGPSSRRTPSGTPQSSTSSRV | binds
11 | EIF-3.A (protein, UniProt P34339 1-1076) MAPNYFQKPEAALKRAEELIQVGKESDALDTLHDTIKARRHKQWTTVHEQIMIKHMELCVDLKKQHLAKDALFQYKALTQQINVKSLETVVVHFLKLAEQRTEDAQKQSIEKVEEIGDLDQGDVPERLLLAVVSGAAAQDRMDRTVLAPWLRFLWDSYRNCLELLRNNAQVEQLYHTISRHSFTFCLRYQRRTEFRKLCDLLRMHLNQIQKHQYAPNVNSFRVKLTSPESLGLMQDTRLIQLDTAIQMELWQEAYKSAEDVHGMMQLSKDKDKRTVKPASYVNYYDKLALVFWKAGNSLFHAAALLQKFIIYKDMKKSFTQDEAQEQATRVLLATLSIPEGSDSPSDLSRNLDIEDQHVANMRLLSNLLRLPIAPTKNGILKEAARIGVPEAAGQTAKDLYKLLESNFSPLKVAKDVQSVLDTVTRPDHLQYVESLQAVAAVKALKQVSVIYEAISWERIRKIIPFYSDLALERLVVEASKHRIVKAQLDHRADCVRFGSSDATLAGGVDECDNNEGFTGDDTQLGVEGVRNHLEAMYTRLRGLVEGLDAEKRRKEILKKIEGQVTSYEKNRPTEIERIHRRKKMLENYKENWERVKAEKTAAAATEQAKREEAARAEEMKRLDEQNKESERKRKQAEQDEIQKKIKQDQLYKMQQNAIYQEIIKEKGLEQFRDMDPEQVLREQRERLDKERAETQRRLQQQEKNFDHHVRALHLEELNERRAVMNMRLSEAPKLHDLYEEARIAKEIAAHDSHVKLWGMWDQVRDATFDWVESVKIDNQETLEKKLSDWQAKLEAVRNNRLAERAEDRKKKRKEDAIQAKIAEERKKREEEERARLQVIEGQRRQHNDGRGRREMENSVAMQDNDWRRNPPRESLPPRETRPMRDGPTREPREFRGDRDREPREPFREVPSSKADTDNSWRSSAQPTRKPDDRRSDEFRRNDDVRRNDDVRRNDPPRPASKADTGDKWERGVKPVVSPPKTDAPSVSEPKSEGPKRFVPPHLRNRQGGGGAGGSEEQSAPARSGNSNVTSPPDRAQGLRGPPPTGRNSLPRRDGPPPRSNNTGNTGNADSGSWRK | binds
12 | EIF-3.I (protein, UniProt Q965S8 1-327) MRPLSLKGHERALTRVRFNREGDLTFSCAKDKKPCVWYTENGERIGSYDGHNGAVWDIDVSWDTTKCVTASGDLTVKIWDAELGNCLYTINHQTPMKSCGFSYSGNLVCFTTQKMTKNLSTFQVRDLRDSSQMVEGGESFFYSQFDVNATTALFTQMDDLVTIGFESGLLQQYDLRNPDTPIHTNESVHRYSVQDLQLSPRGDFLISASRDKTAALLDVNDLKKLKQYKSERPVNSACISPNRDHICLGGGEDAMQVTQTSVSAGHFEAKIYHMVFEEEFARFKGHFGPINTMAWHPSGTIIATGGEDGYIRIQEFDEDYLGFTYDF | binds
13 | CGH-1 (protein, UniProt Q95YF3 1-430) MSGAEQQQIVPANNGDENWKAGLNLPAKDRRFKTADVTDTKGVEFEDFCLGRDLLMGIFEKGWEKPSPIQEASIGVALTGQDILARAKNGTGKTGAYCIPVIEKIQPALKAIQAMVIVPTRELALQTSQICVELSKHIQLKVMVTTGGTDLRDDIMRLNGTVHLVIATPGRILDLMEKGVAKMEHCKTLVLDEADKLLSQDFQGILDRLINFLPKERQVMLYSATFPNTVTSFMQKHMHKPYEINLMEELTLLGVTQYYAFVQEKQKVHCLNTLFRKLQINQSIIFCNSTQRVELLAKKITEIGYSCYYIHSKMAQNHRNRVFHDFRQGNCRNLVCSDLLTRGIDIQAVNVVINFDFPRNAETYLHRIGRSGRFGHLGVAINLITYEDRHTLRRIEQELRTRIEPIPKTVDPKLYVADQQLVDAADETTA | binds
